Experimental data: article doi:10.1101/2023.09.14.557376
These are yes or no findings as the source states them, for the method shown. Binding seen in cells or lysates may run through a third protein. A yes stands for co-enrichment or nearness to the bait. Other partners may have been found. Sequences can lack the tags named with a protein.

Biological target: T1, biotinylated IRF4 (IRF4-Avi-tag fusion protein, interferon regulatory factor 4) (mouse) (UniProt Q64287)
T1 sequence (chain, biotin on the Avi-tag (BirA-mediated in vivo biotinylation)): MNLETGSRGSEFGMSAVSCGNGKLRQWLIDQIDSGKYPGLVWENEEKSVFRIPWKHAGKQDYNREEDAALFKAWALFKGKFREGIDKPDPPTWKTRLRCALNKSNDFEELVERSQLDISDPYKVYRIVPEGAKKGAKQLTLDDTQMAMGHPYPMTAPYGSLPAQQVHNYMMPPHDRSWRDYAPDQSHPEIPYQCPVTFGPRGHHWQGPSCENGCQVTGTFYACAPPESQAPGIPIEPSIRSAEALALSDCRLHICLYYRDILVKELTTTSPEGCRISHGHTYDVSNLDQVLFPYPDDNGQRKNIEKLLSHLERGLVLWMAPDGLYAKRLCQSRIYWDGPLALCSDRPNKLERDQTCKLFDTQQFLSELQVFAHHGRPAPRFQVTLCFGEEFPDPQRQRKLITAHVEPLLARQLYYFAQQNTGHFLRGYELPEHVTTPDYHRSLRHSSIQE
Assay: affinity purification with mass spectrometry

B1: FLI1 (protein, UniProt P26323 1-452)
chain: MDGTIKEALSVVSDDQSLFDSAYGAAAHLPKADMTASGSPDYGQPHKINPLPPQQEWINQPVRVNVKREYDHMNGSRESPVDCSVSKCNKLVGGGEANPMNYNSYMDEKNGPPPPNMTTNERRVIVPADPTLWTQEHVRQWLEWAIKEYGLMEIDTSFFQNMDGKELCKMNKEDFLRATSAYNTEVLLSHLSYLRESSLLAYNTTSHTDQSSRLNVKEDPSYDSVRRGAWNNNMNSGLNKSPLLGGSQTMGKNTEQRPQPDPYQILGPTSSRLANPGSGQIQLWQFLLELLSDSANASCITWEGTNGEFKMTDPDEVARRWGERKSKPNMNYDKLSRALRYYYDKNIMTKVHGKRYAYKFDFHGIAQALQPHPTETSMYKYPSDISYMPSYHAHQQKVNFVPSHPSSMPVTSSSFFGAASQYWTSPTAGIYPNPSVPRHPNTHVPSHLGSYY
In the case of B1, the binding is reported as “binds”.

B2: RFX1 (protein, UniProt P48377 1-963)
chain: MATQSYVTELQAAPQASQPPQAPPQALPQPPPPAAPQPPAAATPQPQYVTELQSPQPQTQPPGSQKQYVAELPAAPAPSQPATPAPSPVAQQYIVVTVSEGAMRASETVSEASPSSTASQTGVPTQVVQQVQGTQQRLLVQASVQAKPGHVSPLQLTNIQVPQQAIPTQHLVVQSPAPGTKSGQVSLTVHSAQQVHSAPERSPVQANNSTSKTAGTPAATVQQLQVHSVQQSVPVTQERSVVQATPQTKAGPVQQLTVQGLQPVHVAQEVQQLPQVPVPHVYSSQVQYVEGGDASYTASAIRSSTYQYPETPIYTQTAGTSYYEASGTAAQVSTPATSQTVASSGSVPMYVSGSPIVASSSSSEAGASNSSVGAGGNGGGGSSGGGSGGSSGSGAGTYVIQGGYMLGNASQSYSHTTRASPATVQWLLDNYETAEGVSLPRSTLYCHYLLHCQEQKLEPVNAASFGKLIRSVFMGLRTRRLGTRGNSKYHYYGLRIKASSPLLRLMEDQQHMAMRGQPFSQKQRLKPIQKMEGVANGVAVGQQSTGLSDISAQVQQYQQFLDASRSLPDFAELDLQGKVLPEGVGPGDIKAFQVLYREHCEAIVDVMVNLQFTLVETLWKTFWRYNLSQPSEAPPLAVHDEAEKRLPRASLVLLSKFQPVLQWTKHCDNVLYQGLVEILIPDVLRPIPSALTQAIRNFAKSLESWLTHAMVNIPEEMLRVKVAAAGAFAQTLRRYTSLNHLAQAARAVLQNTAQINQMLSDLNRVDFANVQEQASWVCRCEDRVVQRLEQDFKVTLQQQNSLEQWAAWLDGVVSQVLKPYQGSSGFPKAAKLFLLKWSFYSSMVIRDLTLRSAASFGSFHLIRLLYDEYMYYLIEHRVAQAKGETPIAVMGEFANLATSLNPLDPDKDEEEEEEEESEDELPQDISLAAGSESPALGPEALEPPAKLARTDTRGLFVQALPSS
B2 was tested, and the binding was “binds”.
